Results: publication doi:10.1101/142992
No constants are given. Whether binding was seen depends on the method and setting. In cells and extracts the contact can be indirect. A result given as binding can be weak or reduced; the word gives no strength.

Sequences of proteins named here, by UniProt entry; tags and fusion partners are left off. A change or cut given only in a name is not applied to a line headed by its entry.
UniProt P0DPQ6: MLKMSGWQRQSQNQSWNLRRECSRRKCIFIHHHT
UniProt P35638: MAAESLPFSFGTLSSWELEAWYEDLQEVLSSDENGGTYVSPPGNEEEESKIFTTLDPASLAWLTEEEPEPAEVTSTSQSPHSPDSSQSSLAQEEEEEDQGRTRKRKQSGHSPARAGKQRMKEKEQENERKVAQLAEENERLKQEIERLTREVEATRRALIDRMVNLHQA

Target: altDDIT3^GFP (human) (UniProt P0DPQ6)
Experiment: co-IP

binding: binds
Substance: DDIT3^mCherry (from UniProt P35638 1-169)
